# Data from PubChem BioAssay AID1508600 (Functional Genomics Laboratory (NCATS/FGL), 2020).
# About 3,700 (7%) of roughly 53,000 sequences were called active.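 The calls were made as follows: active = gene knockdowns whose robust z-score for IL-1 alpha signal is at least 2 or at most -2, so actives lie on both sides; inactive = the rest.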 The list shows a part of the results.
# Test: Components of the Cytosolic LPS Sensing Pathway: Gene Identification via Genome-wide siRNA Screen;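 also: robust z of the log signal after scaling to non-targeting control siRNA wells of the plate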
# Conditions: RAW264.7 macrophages, IL-1a HTRF, actives lie on both sides, screened at 100 nM (by protocol), cells primed 5 h with Pam3CSK4 first
# Outline: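 Cells (RAW264.7, 1×10^4 per well) were transfected with siRNA at 100 nM and cultured 48h at 37 degrees C. Pam3CSK4 was added for 5 hours; LipidA transfection followed for 24 hour. IL-1a was then measured by HTRF.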
row,Sequence,z-score
1,GUUUGAUGUCUGUCUAACATT against Olfr608,inactive: -0.104
2,GUCAGAUGAUUCUAUUCUCTT against Rps21,inactive: 0.0243
3,GGGAAAACAGCCCUUUCAUTT against Slc12a7,inactive: -1.38
4,CCUCAUGGCCAAUUUGCACTT against Plekhg5,inactive: -0.713
5,GCGAGGUGUCUCUAUCAACTT against Mrpl11,active: 3.37
6,GGCUCAUUGUAGCAAAUUATT against Wdr44,inactive: -0.452
7,GGUUAAGGAAUAGUAACUCTT against Ehbp1l1,inactive: 0.931
8,GGACAAAGAUAAAGAAGAUTT against Lsp1,inactive: -0.738
9,GGCUCUAUGAGUCUACCUATT against Cdx1,inactive: 0.547
10,GAGGGUGUGCAUUCUUCUATT against Olfr1242,inactive: -0.766
11,GGCUGGACAGGAUUAUCCATT against Tmem185b,inactive: -0.904
12,GGGAAUCUUGUUAUAAGGGTT against Vmn1r69,inactive: 0.0276
13,GGAUGUAACUAGUAACUUUTT against Kcnn3,inactive: 0.108
14,GCUACCCUCGUUGUUGACATT against Hcrtr2,inactive: -0.559
15,GGGUCAACCCGAUAUUACCTT against Kcnh7,inactive: 0.0824
16,GGAAAUGGUUCUAACAAAATT against Cpa5,inactive: 0.933
17,GGGAUAUUGAGGAAGGUAUTT against Eda2r,inactive: -0.842
18,CCUGUUUGUACUACUCUUUTT against Krt84,inactive: 0.997
19,GCAUGAGUAUUCCAAGGAGTT against Arhgef7,active: -2.36
20,GGUCAGAGGGCGAAUUAAATT against Akap4,inactive: 0.0419
21,CGGGCACUUAAGUUUCCAGTT against Nfix,inactive: 1.44
22,GGAACUGAAGUUGAAAUAATT against Pkhd1l1,inactive: -0.751
23,GGAAAAACAACCAGAUUGATT against Ttc39c,inactive: -0.551
24,CCCUCUGGAUGGAUCUUCATT against Fbp2,inactive: -1.3
25,GCUGUUUGAGGUCAUUCAUTT against Urb2,active: 4.71
26,GGGUAGUGGUGAGCAAGACTT against Wnt10b,inactive: 1.42
27,CCUCCAGUUCAGAAUUCUATT against Surf4,inactive: 0.634

row,Sequence,z-score
1,GCCCUUACCAUGUGUCCUUTT against Olfr1346,inactive: 0.939
2,GGGCAAGUUUUCUACAUUUTT against Cntnap2,inactive: 1.16
3,GUACAUGAGAGACCCUGAUTT against Lsm7,inactive: 0.337
4,GCUCGAGAAGAGUUUGUUATT against 1700030J22Rik,inactive: 0.933
5,CCCUAAAGCUUUAUAGUGCTT against Usp17lb,inactive: 1.39
6,GGUGAUUGAACAGAGCUACTT against Slc2a4,inactive: -0.937
7,GGAAGUGAUAUCAUCGUAGTT against Dnajb11,inactive: -1.67
8,GGUCUUUCUGACGCAGACUTT against Isg15,inactive: 0.64
9,GGUAAAUGUCUGCUCUGAGTT against Selenok,active: -2.53
10,GGAGACUAUUACCAUACUGTT against P4ha2,inactive: -0.991
11,GCAUGGUAUUUCAUAAAGCTT against Inka2,inactive: -0.0246
12,GGCAAGGAGGAUGACAAAATT against Rnf113a2,inactive: 0.416
13,CCUCCAGGCUAUUUAUAGUTT against Unc119,inactive: -0.14
14,CCCGGUUGAGAAGAUAGACTT against Sod3,inactive: 0.21
15,GGGAAGAUCAGGGAUGCUCTT against Dnajc19,inactive: -0.991
16,GCCGCUUAUUCACAGAUGUTT against Klhl24,inactive: 0.399
17,GCACCAUAUCUGAGAACUUTT against Prl5a1,inactive: -0.254
18,CCUCUCCUUACAACUGAUGTT against Zfp286,inactive: -0.167
19,GGAGAAAGGAAAACUCUUUTT against Pcdhga8,inactive: 0.848
20,GGCAGAUCUUCUUUGGAAATT against Ugt2b38,inactive: 0.757
21,GGCACUUGCUUUGGAUAAATT against Serpinb6a,inactive: -0.742
22,GCCACCCUACCAUAGCAAATT against Sgip1,inactive: 0.675
23,CGCAACCAUCAUCGUGCUCTT against Olfr282,inactive: 0.125
24,GCUAACUGAUACUCCACCATT against 2810006K23Rik,inactive: 0.573
25,GGUAGUUGAGGUUUUAUAGTT against Gstcd,inactive: -0.877
26,GGAAGAAGUCAAACCAUAUTT against Ccl25,inactive: -1.28

# In a second layout: results already given.
row	Sequence	z-score
10	GGAGACUAUUACCAUACUGTT against P4ha2	inactive: -0.991
11	GCAUGGUAUUUCAUAAAGCTT against Inka2	inactive: -0.0246
12	GGCAAGGAGGAUGACAAAATT against Rnf113a2	inactive: 0.416
13	CCUCCAGGCUAUUUAUAGUTT against Unc119	inactive: -0.14
14	CCCGGUUGAGAAGAUAGACTT against Sod3	inactive: 0.21
15	GGGAAGAUCAGGGAUGCUCTT against Dnajc19	inactive: -0.991
16	GCCGCUUAUUCACAGAUGUTT against Klhl24	inactive: 0.399
17	GCACCAUAUCUGAGAACUUTT against Prl5a1	inactive: -0.254
18	CCUCUCCUUACAACUGAUGTT against Zfp286	inactive: -0.167
19	GGAGAAAGGAAAACUCUUUTT against Pcdhga8	inactive: 0.848
20	GGCAGAUCUUCUUUGGAAATT against Ugt2b38	inactive: 0.757
21	GGCACUUGCUUUGGAUAAATT against Serpinb6a	inactive: -0.742
22	GCCACCCUACCAUAGCAAATT against Sgip1	inactive: 0.675
23	CGCAACCAUCAUCGUGCUCTT against Olfr282	inactive: 0.125
24	GCUAACUGAUACUCCACCATT against 2810006K23Rik	inactive: 0.573
